In PubChem BioAssay AID1471 (National Center for Advancing Translational Sciences (NCATS), 2008):
In all, about 230,000 compounds went through this assay and about 310 (0.13%) were called active. Inconclusive results, whose numbers are uncertain, are shown with a selection of clear calls. The call rests on the fitted dose curve; in most records, active means well fitted activation curve with a large enough effect; inconclusive means small, poorly fitted or top-dose-only effect; inactive means no such curve, though single readings can be large or run the other way. Where the call is inconclusive, the potency comes from a doubtful curve fit.

test: qHTS Multiplex Assay to Identify Dual Action Probes in a Cell Model of Huntington: Cytoprotection (ATP); details: PC12 HTT-Q103 induced, ATP luminescence, 40 h; cytoprotection (ATP increase): at 56.4 µM (top of the series) unless noted; further: nearly all actives have a fitted effect of over 45% in size;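 on cytoprotection (ATP increase): toxic huntingtin expression switched on by the ecdysone agonist tebufenozide; % of control where 0% means no effect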
Outline: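 Compounds were screened for protection of PC12 cells against cell death after tebufenozide induction (100 nM final) of mutant Huntingtin exon 1 (Q103) fused to GFP.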
Potency means the concentration at half of the fitted maximal effect.

SMILES | Potency | cytoprotection (ATP increase)
O=C(NCc1ccc(F)cc1)c1cccc2c1C(=O)N(Cc1cccnc1)C2 | inconclusive: 0.282 µM [activator, full curve, poor fit] | –
O=C(COC(=O)Cc1cccc(C(F)(F)F)c1)NC1CC1 | inconclusive: 17.8 µM [activator, single point] | –
Cc1cccc(C(=O)N/N=C/C(C)Cc2ccc3c(c2)OCO3)c1 (configuration not stated) | inconclusive: 0.398 µM [activator, partial curve] | –
Cc1ccc(CNC(=O)CSc2c3c(nc4cc(Cl)ccc24)CCCC3)o1 | inconclusive: 31.6 µM [activator, single point] | –
O=C(NCc1ccc2c(c1)OCO2)C1CCN(S(=O)(=O)c2cccs2)CC1 | – | inactive: -19.4%
O=C(CCSCc1ccc(Cl)cc1)NCc1ccco1 | inconclusive: 35.5 µM [activator, single point] | –
COc1ccc(/C=N/NC(N)=S)cc1OC(=O)c1cccc2ccccc12 | inconclusive: 35.5 µM [activator, single point] | –
Cc1cc(C)n2nc(CC(=O)NCc3ccccc3Cl)nc2n1 | inconclusive: 1.26 µM [activator, single point] | –
CC1(C)c2ssc(=S)c2-c2ccccc2N1C(=O)CSC1=NCCS1 | inconclusive: 12.6 µM [activator, single point] | –
O=C(Nc1cccc(Cl)c1)Nc1ccnc(-c2cccnc2)n1 | inconclusive: 0.708 µM [activator, single point] | –
CCC(=O)Nc1sc2c(c1C#N)CCC2 | – | inactive: -39.6%
COc1cccc(-c2noc(C3CCCN(C(=O)CC(C)(C)C)C3)n2)c1 (configuration not stated) | inconclusive: 3.55 µM [activator, single point] | –
CCN(C(=O)COC(=O)c1ccccc1SCC(=O)NC1CCCCCCC1)C1CCS(=O)(=O)C1 (configuration not stated) | – | inactive: -5.51% [at 0.074 µM]
CCCCC(=O)Nc1ncc([N+](=O)[O-])s1 | inconclusive: 31.6 µM [activator, single point] | –
O=C(CCc1ccc(O)cc1)c1c(O)cc(O)cc1O[C@@H]1O[C@@H](CO)[C@@H](O)[C@@H](O)[C@H]1O | inconclusive: 12.6 µM [activator, full curve, poor fit] | –
O=C(CSc1nc2ccccc2c(=O)n1CCC(=O)N1CCCCC1)NCc1ccccc1 | inconclusive: 0.1 µM [activator, partial curve, poor fit] | –
COc1ccc(Br)cc1/C=C/C(=O)NC(=S)Nc1ccc(Cl)c(C(=O)O)c1 | inconclusive: 35.5 µM [activator, single point] | –
CCS(=O)(=O)c1ccc(O)c(NC(=O)Nc2ccccc2OC)c1 | inconclusive: 6.31 µM [activator, single point] | –
O=c1cnc2cnc(Nc3ccccc3)nc2n1C[C@H]1CCCO1 | inconclusive: 7.94 µM [activator, full curve] | –
Cc1cc(=O)c2cc(Br)ccc2n1CC(=O)NCc1ccccc1 | inconclusive: 1 µM [activator, single point] | –
COCCCNC(=O)CSc1c2c(nc3ccc(Cl)cc13)CCCC2 | inconclusive: 2.24 µM [activator, partial curve] | –

SMILES | Potency | cytoprotection (ATP increase)
CCOC(=O)c1sc(N2N=C(C)/C(=C\c3ccc(OCC(=O)OC)cc3)C2=O)nc1C | – | inactive: 20.8% [at 10 µM]
COc1ccc(-c2cc(C3CCN(Cc4cccc(C(F)(F)F)c4)CC3)[nH]n2)cc1 | inconclusive: 35.5 µM [activator, single point] | –
COc1ccc(C(=O)C[n+]2ccc(-c3nnc4n3CCC4)cc2)cc1 | inconclusive: 1.26 µM [activator, single point] | –
O=C(CCCn1c(=O)[nH]c2cc(Cl)ccc2c1=O)NCC1CCCO1 (configuration not stated) | – | inactive: 25.7% [at 10 µM]
O=C(CSc1ccc(Cl)cc1)NC(=O)NCc1ccco1 | inconclusive: 5.62 µM [activator, single point] | –
CC(C)CNS(=O)(=O)c1cc(C(=O)OCC(=O)c2ccc3c(c2)OCCO3)c(Cl)cc1Cl | inconclusive: 3.55 µM [activator, partial curve] | –
CN(C)C(=N)N=C(N)N | inconclusive: 3.16 µM [activator, single point] | –
Brc1c(Br)c(Br)c2n[nH]nc2c1Br | – | inactive: 3.36%
O=C1CC(/C=C/c2ccccn2)=Nc2ccccc2N1 | inconclusive: 11.2 µM [activator, partial curve, poor fit] | –
Cc1ccc(-n2c(COc3ccccc3)n[nH]c2=S)cc1 | inconclusive: 0.398 µM [activator, partial curve] | –
Cc1nn(-c2ccccn2)c(C)c1Oc1ccccc1O | – | inactive: -8.55%
O=C(CSc1ccccc1)Nc1nnc(COc2ccc(Cl)cc2)s1 | – | inactive: 10.3% [at 10 µM]
CC(C)(C)c1ccc(C(=O)N/N=C2\C3CN4CCN(C3)CC2(c2ccccc2)C4)cc1 | – | inactive: 7.63% [at 10 µM]
O=C(c1cccnc1)C1CCCN(Cc2nc(Cc3ccccc3F)no2)C1 (configuration not stated) | inconclusive: 1 µM [activator, single point] | –
Cc1noc(C)c1C(=O)N1CCC[C@@]2(CCN(Cc3nccs3)C2)C1 | inconclusive: 1.78 µM [activator, full curve, poor fit] | –
Cc1ccc(/C([O-])=C(/C(=S)NCc2ccco2)[n+]2ccccc2)cc1 | – | inactive: -6.04%
O=C(Cc1ccccc1)NCc1ccncc1 | inconclusive: 5.62 µM [activator, single point] | –
CS(=O)(=O)c1ccc2nc(NC(=O)c3ccc(NS(=O)(=O)c4ccc(F)c(F)c4)cc3)sc2c1 | – | inactive: 21% [at 10 µM]
COC(=O)C/C=C/[C@@H](C)[C@H](NC(=O)OCC(Cl)(Cl)Cl)c1cccc(OC)c1 | inconclusive: 5.62 µM [activator, single point] | –
CC(C(=O)NCCN1CCOCC1)(c1ccccc1)c1ccccc1 | inconclusive: 3.98 µM [activator, single point] | –
O=C(Nc1ccc(Br)cn1)c1ccc([N+](=O)[O-])o1 | inconclusive: 14.1 µM [activator, partial curve] | –

As entered above.
In Potency, O=C(c1cccnc1)C1CCCN(Cc2nc(Cc3ccccc3F)no2)C1 (configuration not stated) is entered as inconclusive: 1 µM [activator, single point]
In Potency, O=C(Nc1ccc(Br)cn1)c1ccc([N+](=O)[O-])o1 is entered as inconclusive: 14.1 µM [activator, partial curve]
In cytoprotection (ATP increase), O=C(CCCn1c(=O)[nH]c2cc(Cl)ccc2c1=O)NCC1CCCO1 (configuration not stated) is entered as inactive: 25.7% [at 10 µM]
